In article PMC6181354, “Domain architecture of BAF250a reveals the ARID and ARM-repeat domains with implication in function and assembly of the BAF remodeling complex”:
These are yes or no findings as the source states them, for the method shown.

The chains behind the UniProt entries cited, without tags or fusion partners. Where a name states a change or a piece, a line headed by the entry shows the natural chain unless it says otherwise. A line that says so, or that is headed by a name, gives the form on record, which may keep a tag or linker. Residues count along the entry.
ARID (residues 968–1143) of BAF250a, wild type (O14497, residues 968-1143): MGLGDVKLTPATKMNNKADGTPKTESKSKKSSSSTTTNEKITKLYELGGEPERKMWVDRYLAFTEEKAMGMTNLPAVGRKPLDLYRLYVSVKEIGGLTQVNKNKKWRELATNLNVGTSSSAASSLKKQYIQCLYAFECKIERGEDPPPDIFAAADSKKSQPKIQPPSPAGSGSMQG
ARID (residues 968–1143) of BAF250a, V1067G mutant (O14497, form named): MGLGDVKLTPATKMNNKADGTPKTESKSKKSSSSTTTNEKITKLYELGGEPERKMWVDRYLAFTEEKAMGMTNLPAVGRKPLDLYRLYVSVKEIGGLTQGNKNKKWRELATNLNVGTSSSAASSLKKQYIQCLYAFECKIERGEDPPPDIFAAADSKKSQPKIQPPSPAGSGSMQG

Legend:
[1] = molecular target: ARID (residues 968–1143) of BAF250a, wild type (human) (UniProt O14497); experiment: SEC; gel-filtration step of the purification; buffer 50 mM NaH2PO4, pH 6, 0.025 mM EDTA; both purified
[2] = molecular target: ARID (residues 968–1143) of BAF250a, V1067G mutant (human) (UniProt O14497); experiment: as above

binding [1]	binding [2]	Substance
no binding		ARID (residues 968–1143) of BAF250a, wild type (from UniProt O14497 968-1143) (domain or fragment)
	no binding	ARID (residues 968–1143) of BAF250a, V1067G mutant (from UniProt O14497 968-1143) (domain or fragment)
